In patent US12378199B2, “Rigidified pentadentate chelating agents useful for the [Al18F]2+ labelling of biomolecules” (UNIVERSITÀ DEGLI STUDI DEL PIEMONTE ORIENTALE “A. AVOGADRO”, priority 2019, dated 2025) one finds radiolabelling efficiency and radiolabelling yield data, which are given here for three molecules.

“And” between values parts separate entries of the source, which are not always exact repeats. Equal values may be shown once.

This data set in a line: labelling of the chelating agents with [AlF-18]2+ (radiolabelling efficiency/yield).

As to `O=C(O)CN(Cc1ccccc1O)CC1CCCCN1CC(=O)O` (stereo not shown) [2-AMPDA-HB], the radiolabelling efficiency (37° C., pH 5) is 60% and 68%; the radiolabelling efficiency (pH 5, ambient temperature) is 54%. The molecule also had a radiolabelling yield (pH 6) of 65% and a radiolabelling yield (pH 6.5) of 43.5%.

Regarding `O=C(O)CN(CC(=O)O)CC1CCCCN1Cc1cc([N+](=O)[O-])ccc1O` (stereo not shown) [2-AMPDA-NHB], the radiolabelling efficiency (pH 5, ambient temperature) came to 69%.

Regarding `O=C(O)CN(CC(=O)O)CC1CCCCN1CC(=O)O` (stereo not shown) [2-AMPTA], the radiolabelling efficiency is, setting by setting: (37° C., pH 5) 75%; (pH 5, ambient temperature) 79%.
